Data from US5242783A, “Photographic material and process” (Eastman Kodak Company, priority 1992, dated 1993).

Assay: Hue shifting and release of masking coupler in photographic element, green density at minimum exposure after C-41 processing with and without HAS
Conditions: for Dg at Emin (with HAS): with hydroxylamine sulfate in color developer; for Dg at Emin (w/o HAS): without hydroxylamine sulfate; for extent of deblocking: during the hydroxylamine process

| Structure (SMILES) | Dg at Emin (with HAS) (CS-1 (di-n-butyl phthalate)) | Dg at Emin (w/o HAS) (CS-1 (di-n-butyl phthalate)) | Dg at Emin (with HAS) (CS-2 (2,4-di-tertamylphenol)) | Dg at Emin (w/o HAS) (CS-2 (2,4-di-tertamylphenol)) | extent of deblocking |
| --- | --- | --- | --- | --- | --- |
| CCC(C)(C)c1ccc(OCCCCNC(=O)c2cc(Oc3ccc(N=Nc4cc(OC(C)C(=O)O)c5ccccc5c4OC(=O)C4(C)CCCCC4=O)cc3)c3ccccc3c2O)c(C(C)(C)CC)c1 (centres unmarked) [MC-2] | 0.20 | 0.09 | 0.19 | 0.09 | only partially deblocked |
| CCC(C)(C)c1ccc(OCCCCNC(=O)c2cc(Oc3ccc(N=Nc4cc(OC(C)C(=O)O)c5ccccc5c4OC(=O)C4(C)CN(C(=O)N(C)c5ccccc5)CCC4=O)cc3)c3ccccc3c2O)c(C(C)(C)CC)c1 (centres unmarked) [MC-1] | 0.32 | 0.09 | 0.35 | 0.09 | quantitatively deblocked |
| CCC(C)(C)c1ccc(OCCCCNC(=O)c2cc(Oc3ccc(N=Nc4cc(OC(C)C(=O)O)c5ccccc5c4O)cc3)c3ccccc3c2O)c(C(C)(C)CC)c1 (centres unmarked) [MC-3] | 0.35 | 0.33 | 0.31 | 0.30 | – |
